Among the data in publication PMC11997425, “MADS-domain transcription factor AGAMOUS LIKE-9 participates in the gibberellin pathway to promote bud dormancy release of tree peony” are binding values, retold here.

Amino acid sequences for entries named in this document (tags omitted). A change or cut given only in a name is not applied to a line headed by its entry.
UniProt V9I0Q3: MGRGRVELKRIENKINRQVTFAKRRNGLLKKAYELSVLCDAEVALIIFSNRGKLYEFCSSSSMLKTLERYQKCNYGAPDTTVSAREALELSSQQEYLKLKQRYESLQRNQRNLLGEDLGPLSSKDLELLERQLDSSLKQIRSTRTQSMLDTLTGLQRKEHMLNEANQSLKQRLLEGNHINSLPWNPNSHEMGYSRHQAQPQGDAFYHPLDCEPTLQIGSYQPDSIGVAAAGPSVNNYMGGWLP
UniProt A0A346FU24: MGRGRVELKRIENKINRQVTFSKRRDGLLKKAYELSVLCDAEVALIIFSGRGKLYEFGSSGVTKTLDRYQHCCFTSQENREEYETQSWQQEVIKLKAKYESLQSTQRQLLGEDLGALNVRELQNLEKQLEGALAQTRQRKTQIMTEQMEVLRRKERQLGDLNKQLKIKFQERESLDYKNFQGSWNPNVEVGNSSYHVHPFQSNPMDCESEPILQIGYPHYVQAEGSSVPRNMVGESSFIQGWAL

The target of the test is GST-PsAGL9 fusion protein (Paeonia suffruticosa (tree peony)) (UniProt V9I0Q3). Description: affinity purification with mass spectrometry; purified GST fusion protein immobilised on Glutathione Magnetic Agarose Beads; incubated with total proteins of chilled tree peony buds for 1 h at 4°C; beads washed three times with PBS; LC-MS/MS; GST as control; only the target purified.

Results are given in words; binding and its absence hold for the method and conditions named. Binding seen in cells or lysates may run through a third protein. A yes stands for co-enrichment or nearness to the bait. Other partners may have been found.

Consider “PsAGL9 (AGAMOUS-LIKE 9), endogenous (from UniProt V9I0Q3)”, for which the binding entry is listed as “binds”.

For “PsAGL6, endogenous (from UniProt A0A346FU24)”, the binding result is “binds”.
